Assay results as given in patent publication US6890762B1, “Method for measuring physiocochemical properties of tissues of cells, method for examining chemicals, and apparatus therefor” (Matsushita Technical Information Services Co., Ltd., priority 1996, dated 2005).
At least one compound was matched to its structure with a doubt left.

Test system: slice of a rat heart
Test: spontaneous activity potential of cultivated rat heart slice on integrated multiple electrode
Type: cell-based
Conditions: final concentration of 1 mM, added on the fifth day of the culturing

## CC(=O)OCC[N+](C)(C)C [acetylcholine]
  beat frequency of the spontaneous activity potential versus before the addition: noticeably lower
